Binding data for one substance are collected here from article PMC9136110.

By UniProt entry, the sequences of proteins in these tests, tags left out. Where a name states a change or a piece, a line headed by the entry shows the natural chain unless it says otherwise.
UniProt P45481: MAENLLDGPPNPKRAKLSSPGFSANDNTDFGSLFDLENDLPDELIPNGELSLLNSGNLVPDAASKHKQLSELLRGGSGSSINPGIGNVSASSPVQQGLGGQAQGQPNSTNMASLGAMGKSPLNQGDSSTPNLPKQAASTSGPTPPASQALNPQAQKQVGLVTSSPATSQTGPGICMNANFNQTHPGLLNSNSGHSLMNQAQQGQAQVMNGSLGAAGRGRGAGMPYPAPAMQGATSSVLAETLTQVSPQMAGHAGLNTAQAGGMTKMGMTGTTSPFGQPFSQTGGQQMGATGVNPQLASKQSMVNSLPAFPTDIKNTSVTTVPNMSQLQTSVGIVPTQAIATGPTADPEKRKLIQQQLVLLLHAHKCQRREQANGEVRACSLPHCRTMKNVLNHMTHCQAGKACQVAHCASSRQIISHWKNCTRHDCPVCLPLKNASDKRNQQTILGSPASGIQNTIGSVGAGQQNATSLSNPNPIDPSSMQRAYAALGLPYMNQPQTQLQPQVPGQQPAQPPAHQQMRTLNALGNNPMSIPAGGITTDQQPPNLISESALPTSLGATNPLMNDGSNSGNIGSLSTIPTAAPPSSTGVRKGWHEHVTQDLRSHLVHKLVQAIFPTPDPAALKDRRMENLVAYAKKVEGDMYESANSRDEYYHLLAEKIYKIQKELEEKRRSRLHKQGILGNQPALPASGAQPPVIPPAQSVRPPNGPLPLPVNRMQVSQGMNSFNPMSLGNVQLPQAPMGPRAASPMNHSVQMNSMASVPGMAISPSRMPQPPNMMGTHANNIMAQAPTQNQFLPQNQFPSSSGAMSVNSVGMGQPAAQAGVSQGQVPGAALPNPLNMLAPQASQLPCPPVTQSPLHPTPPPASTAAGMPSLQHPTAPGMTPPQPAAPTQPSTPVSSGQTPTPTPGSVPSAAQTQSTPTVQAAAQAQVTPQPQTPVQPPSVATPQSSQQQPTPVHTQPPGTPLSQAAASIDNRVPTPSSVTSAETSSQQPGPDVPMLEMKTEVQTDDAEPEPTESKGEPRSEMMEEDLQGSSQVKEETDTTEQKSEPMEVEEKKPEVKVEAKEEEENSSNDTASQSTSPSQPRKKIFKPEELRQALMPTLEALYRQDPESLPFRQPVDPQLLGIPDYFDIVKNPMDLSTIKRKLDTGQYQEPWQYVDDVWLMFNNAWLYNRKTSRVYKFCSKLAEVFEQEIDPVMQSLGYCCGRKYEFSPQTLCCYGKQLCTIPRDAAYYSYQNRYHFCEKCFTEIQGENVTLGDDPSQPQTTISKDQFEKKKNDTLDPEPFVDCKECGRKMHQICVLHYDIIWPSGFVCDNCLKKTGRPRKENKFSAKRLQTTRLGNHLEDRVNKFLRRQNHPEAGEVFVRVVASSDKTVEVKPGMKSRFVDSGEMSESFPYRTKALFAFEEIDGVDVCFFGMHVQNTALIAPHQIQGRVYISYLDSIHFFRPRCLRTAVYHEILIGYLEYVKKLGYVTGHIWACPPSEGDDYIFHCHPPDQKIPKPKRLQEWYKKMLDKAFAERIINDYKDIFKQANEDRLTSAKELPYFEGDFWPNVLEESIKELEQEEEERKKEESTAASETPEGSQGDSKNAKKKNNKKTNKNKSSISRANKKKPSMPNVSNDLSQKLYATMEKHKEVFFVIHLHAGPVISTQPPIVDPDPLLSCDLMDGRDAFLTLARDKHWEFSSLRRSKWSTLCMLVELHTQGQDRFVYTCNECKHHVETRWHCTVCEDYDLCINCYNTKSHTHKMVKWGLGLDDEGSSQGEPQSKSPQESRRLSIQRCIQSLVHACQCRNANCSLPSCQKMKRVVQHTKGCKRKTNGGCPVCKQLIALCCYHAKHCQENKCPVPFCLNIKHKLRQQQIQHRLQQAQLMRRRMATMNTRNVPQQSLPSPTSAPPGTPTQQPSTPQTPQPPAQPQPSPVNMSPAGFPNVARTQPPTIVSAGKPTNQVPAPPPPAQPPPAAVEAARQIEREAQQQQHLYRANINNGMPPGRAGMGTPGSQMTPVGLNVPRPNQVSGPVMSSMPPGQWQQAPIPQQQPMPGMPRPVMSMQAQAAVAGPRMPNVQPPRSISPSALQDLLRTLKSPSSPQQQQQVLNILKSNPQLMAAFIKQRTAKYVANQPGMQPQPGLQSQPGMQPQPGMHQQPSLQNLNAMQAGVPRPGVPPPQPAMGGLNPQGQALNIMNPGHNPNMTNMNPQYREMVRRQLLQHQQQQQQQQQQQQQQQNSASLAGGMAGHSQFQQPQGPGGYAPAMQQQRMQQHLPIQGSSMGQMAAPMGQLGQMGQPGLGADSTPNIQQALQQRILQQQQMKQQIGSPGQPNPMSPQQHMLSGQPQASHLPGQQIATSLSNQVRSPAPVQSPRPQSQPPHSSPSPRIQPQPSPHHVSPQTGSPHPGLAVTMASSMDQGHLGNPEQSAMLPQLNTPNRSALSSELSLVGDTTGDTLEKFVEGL
UniProt Q7KZI7: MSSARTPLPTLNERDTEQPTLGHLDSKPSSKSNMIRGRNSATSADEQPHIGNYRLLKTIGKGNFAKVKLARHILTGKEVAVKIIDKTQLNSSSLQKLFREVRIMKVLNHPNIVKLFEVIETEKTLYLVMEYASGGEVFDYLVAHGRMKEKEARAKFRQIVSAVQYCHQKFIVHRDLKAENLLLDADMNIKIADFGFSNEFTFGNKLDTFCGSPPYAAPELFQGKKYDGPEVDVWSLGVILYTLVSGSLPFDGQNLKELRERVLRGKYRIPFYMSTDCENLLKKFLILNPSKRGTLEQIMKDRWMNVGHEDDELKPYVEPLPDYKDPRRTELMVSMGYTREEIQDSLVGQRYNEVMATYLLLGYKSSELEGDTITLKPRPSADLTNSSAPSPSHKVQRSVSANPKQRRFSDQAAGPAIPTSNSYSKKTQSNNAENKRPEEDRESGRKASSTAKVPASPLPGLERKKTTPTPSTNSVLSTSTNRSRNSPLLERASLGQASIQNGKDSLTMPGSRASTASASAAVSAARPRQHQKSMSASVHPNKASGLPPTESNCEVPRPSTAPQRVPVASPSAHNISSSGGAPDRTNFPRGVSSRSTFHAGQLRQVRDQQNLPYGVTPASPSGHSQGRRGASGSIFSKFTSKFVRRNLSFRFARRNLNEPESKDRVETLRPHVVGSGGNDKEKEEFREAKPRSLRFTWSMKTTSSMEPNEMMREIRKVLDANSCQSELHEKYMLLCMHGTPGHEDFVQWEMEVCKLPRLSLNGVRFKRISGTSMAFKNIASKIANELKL

The target in the test is FLAG-tagged WT full-length CREB-binding protein (CBP-WT) (UniProt P45481). Put plainly: co-IP; 293A cells co-transfected with FLAG-tagged CBP and Myc-tagged MARK2 variants; lysed in low stringency NETN buffer (50 mM Tris-HCl pH 7.4, 150 mM NaCl, 1 mM EDTA, 1% NP-40); FLAG pull-down on protein A/G beads overnight; immunoblot for Myc-MARK2.

Results are given in words; binding and its absence hold for the method and conditions named. In cells and extracts the contact can be indirect. Binding can be weak; no strength is given.

On to “Myc-tagged WT full-length microtubule affinity-regulating kinase 2 (MARK2-WT) (from UniProt Q7KZI7 1-788) (enzyme)”, for which the binding entry is “binds weakly”.
